Consider 2 substances from paper PMC6206164, “Fibroblast Growth Factor Binding Protein 3 (FGFBP3) impacts carbohydrate and lipid metabolism” (Scientific Reports, 2018).

Protein sequences, listed by entry. Tags and fused reporters are not part of them. Lines headed by an entry give the natural chain unless they say otherwise; changes in a name come on top. Residues count along the entry.
UniProt Q9NSA1, residues 29-209: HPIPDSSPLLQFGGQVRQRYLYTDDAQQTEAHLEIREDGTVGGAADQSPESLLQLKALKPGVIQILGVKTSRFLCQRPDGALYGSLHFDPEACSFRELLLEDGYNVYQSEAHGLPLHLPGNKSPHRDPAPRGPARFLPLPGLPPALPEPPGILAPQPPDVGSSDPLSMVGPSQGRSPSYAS
UniProt Q99N32: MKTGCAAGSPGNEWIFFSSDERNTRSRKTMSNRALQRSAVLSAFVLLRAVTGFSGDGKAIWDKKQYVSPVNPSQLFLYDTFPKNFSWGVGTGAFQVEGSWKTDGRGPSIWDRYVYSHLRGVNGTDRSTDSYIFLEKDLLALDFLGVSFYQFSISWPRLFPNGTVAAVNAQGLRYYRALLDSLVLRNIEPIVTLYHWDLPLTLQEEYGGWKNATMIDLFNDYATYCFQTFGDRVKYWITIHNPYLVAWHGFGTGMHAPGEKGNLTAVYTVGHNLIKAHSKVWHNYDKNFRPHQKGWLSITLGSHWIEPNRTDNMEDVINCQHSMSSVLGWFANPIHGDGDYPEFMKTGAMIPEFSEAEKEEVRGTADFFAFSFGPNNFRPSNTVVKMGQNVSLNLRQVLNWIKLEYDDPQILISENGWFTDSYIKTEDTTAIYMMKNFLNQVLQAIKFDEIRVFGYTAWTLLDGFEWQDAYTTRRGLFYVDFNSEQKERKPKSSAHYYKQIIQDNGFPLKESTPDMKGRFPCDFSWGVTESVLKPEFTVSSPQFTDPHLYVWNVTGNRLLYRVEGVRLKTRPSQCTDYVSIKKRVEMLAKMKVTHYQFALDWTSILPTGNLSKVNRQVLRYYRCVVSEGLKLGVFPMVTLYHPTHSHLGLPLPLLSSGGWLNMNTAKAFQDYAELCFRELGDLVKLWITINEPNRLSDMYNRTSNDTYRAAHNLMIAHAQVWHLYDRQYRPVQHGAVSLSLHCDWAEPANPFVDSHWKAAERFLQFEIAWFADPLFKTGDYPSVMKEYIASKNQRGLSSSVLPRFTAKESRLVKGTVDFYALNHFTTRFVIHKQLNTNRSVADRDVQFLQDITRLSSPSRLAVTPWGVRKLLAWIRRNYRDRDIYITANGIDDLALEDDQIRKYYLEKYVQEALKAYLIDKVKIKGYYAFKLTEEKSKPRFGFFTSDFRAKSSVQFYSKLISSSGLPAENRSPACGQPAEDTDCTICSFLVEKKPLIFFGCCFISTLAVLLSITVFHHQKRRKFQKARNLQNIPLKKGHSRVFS

In assay [1] the target is T1, Recombinant FGF15 (mouse) (UniProt O35622).
T1 sequence: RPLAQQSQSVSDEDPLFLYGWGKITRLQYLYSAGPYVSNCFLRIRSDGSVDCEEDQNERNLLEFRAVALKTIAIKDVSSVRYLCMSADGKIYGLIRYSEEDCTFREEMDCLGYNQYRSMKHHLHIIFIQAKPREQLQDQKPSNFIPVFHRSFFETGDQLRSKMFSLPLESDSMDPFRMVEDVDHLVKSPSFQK
Put plainly: ELISA; solid-phase equilibrium binding; FGF coated on the plate; MBP-tagged protein in serial dilutions, 2 h room temperature; detection with anti-MBP antibody; both purified.

The target of assay [2] is Human recombinant FGF19 (human) (UniProt O95750). Kind of assay: ELISA; competitive binding; increasing excess of KLB or KLa bound to immobilised FGF19 or FGF21 (2.5 μg/ml) for 1 h before BP3 or MBP control (0.15 μg/ml); MaxiSorp plates; both purified.
Assay [3] concerns the target Recombinant human FGF21 (human) (UniProt Q9NSA1). The assay is described as above.

Results are given in words; binding and its absence hold for the method and conditions named. Binding calls can cover weak binding; strength is not graded here.

Take “MBP-tagged C66 fusion protein (C-terminal fragment of the BP3 protein) (human) (domain or fragment)”: in assay [1], the binding result was “binds”.
Consider “Recombinant mouse β-Klotho (from UniProt Q99N32) (receptor)”, for which the binding result in assay [2] and in assay [3] was “binds” throughout.
